Results deposited as PubChem BioAssay AID504744 (Drosophila RNAi Screening Center, 2011)
The screen tested about 23,000 reagents; below is an unselected part of those that have a named target and a result. Over the whole deposit, 98 (0.43%) are marked active. 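Only hit calls are given; the phospho-dAkt signals, z-scores and hit direction were not deposited.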 Reagents against one gene are numbered here. Names joined by + are all predicted targets of the reagent.

- Assay: 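Identify dsRNAs that increase or decrease phospho-dAkt after insulin treatment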 (primary screen)
- Cells: Drosophila Kc167 cells
- Knock-down reagent: long dsRNA against Drosophila genes, 250 ng dsRNA per well of a 384-well plate
- Timing: 3 days of knock-down, then overnight serum-free starvation before stimulation
- Treatment: bovine insulin at 387 nM for 10 minutes after 12 h without serum
- Detection: 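In-cell antibody fluorescence for phospho-dAkt in each well over DNA-dye signal, with log2 residuals expressed as z-scores adjusted for cell count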
- Call rule: 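Hit in the insulin screen when the two-replicate mean z-score is more extreme than plus or minus 2.5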

CG10651 gave inactive. CG15741 showed inactive. Patsas showed inactive. After knock-down of ND-B17.2 (NADH dehydrogenase (ubiquinone) B17.2 subunit) the results were inactive. Depletion of Nthl1 (Nth-like DNA glycosylase 1) came out at: inactive. For yellow-d the deposit lists inactive.

After knock-down of Mabi (Mabiki), the record shows inactive. mh (maternal haploid) gave inactive. With knock-down of CG12641 (retired record), the record shows inactive. With knock-down of CG12811 the results were inactive. For NaCP60E (Na channel protein 60E) #1, the values are inactive. With knock-down of NaCP60E (Na channel protein 60E) #2, the record shows inactive.

Against CG15097, the entry reads inactive. bam (bag of marbles) showed inactive. Silencing of CG33137 resulted in: inactive. With knock-down of CG16853, the screen gave inactive. For CG4991, the values are inactive. For Nplp2 (Neuropeptide-like precursor 2), the entry reads inactive.

kl-5 (retired record) #1 showed inactive. kl-5 (retired record) #2 showed inactive. After knock-down of kl-5 (retired record) #3, the record shows inactive. kl-5 (retired record) #4 gave inactive. Against Neto (Neuropilin and tolloid-like) #1 the deposit lists inactive. Against Neto (Neuropilin and tolloid-like) #2, the entry reads inactive.

With knock-down of Neto (Neuropilin and tolloid-like) #3 the results were inactive. Neto (Neuropilin and tolloid-like) #4 showed inactive. Against S6kII (Ribosomal protein S6 kinase II) the deposit lists inactive. CG34200 gave inactive. Against dind (diamond), the entry reads inactive. nwk (nervous wreck) scored inactive.

For Srpk79D (Serine-arginine protein kinase at 79D) #1, the entry reads inactive. Silencing of Srpk79D (Serine-arginine protein kinase at 79D) #2 resulted in: inactive. With knock-down of sphinx1, the record shows inactive. After knock-down of CG2147 the results were inactive. With knock-down of Pfas (Phosphoribosylformylglycinamidine synthase), the screen gave inactive. For RpL11 (Ribosomal protein L11), the entry reads inactive.

With knock-down of Trs33 (TRAPP subunit 33), the screen gave inactive. Knock-down of pds5 gave: inactive. For CG10588, the entry reads inactive. CG34107 showed inactive. Against Hrb98DE (Heterogeneous nuclear ribonucleoprotein at 98DE), the entry reads inactive. For CG4630 the deposit lists inactive.

For disp (dispatched), the values are inactive. vri (vrille) gave inactive. For CG14932 the deposit lists inactive. Depletion of Wdr81 (WD repeat domain 81) gave: inactive. CG5928 showed inactive. With knock-down of Cyp4ad1 (Cytochrome P450 4ad1), the screen gave inactive.

Silencing of Myc gave: inactive. Depletion of Cluap1 (Clusterin associated protein 1) gave: inactive. Against Ag5r2 (Antigen 5-related 2) the deposit lists inactive. For Arp53D (Actin-related protein 53D), the values are inactive. With knock-down of Rad1 + Sws1, the record shows inactive. With knock-down of Fbp2 (Fat body protein 2), the screen gave inactive.

Knock-down of chico gave: inactive. Against dpr8 (defective proboscis extension response 8) #1, the values are inactive. Against dpr8 (defective proboscis extension response 8) #2, the entry reads inactive. Depletion of dpr8 (defective proboscis extension response 8) #3 came out at: inactive. For dpr8 (defective proboscis extension response 8) #4 the deposit lists inactive.
